PubChem BioAssay AID504784, Drosophila RNAi Screening Center, 2011
Assay: 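Fly genes whose silencing alters how much lipid cells keep in droplets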 (primary screen). Cell system: Drosophila Kc167 embryonic cells. Reagents: long dsRNA against Drosophila genes, about 250 ng dsRNA per well. Duration: 4 days. Challenge: cells fed 400 µM oleic acid bound to BSA. Detection: 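Cells imaged and segmented; ratio of lipid droplet area to nuclear area, log-transformed, then normalised as a B-score over the screen; higher means more stored lipid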. Scale: droplet/nuclear area B-score: higher = more stored lipid (overstorage).
The screen tested about 17,000 reagents; shown is an unselected part of those with a known target gene and a result. 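Each column is one replicate's B-score; the combined score over replicates was not deposited, so single values may mislead.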 A plus sign joins genes that one reagent is predicted to hit. Further read-outs or replicates are left out here. No sequences are given here.

Gcn5 [DRSC11248]
- droplet/nuclear area B-score, replicate 1: 0.804

CG34462 [DRSC10768]
- droplet/nuclear area B-score, replicate 1: 1.67

borr [DRSC02749]
- droplet/nuclear area B-score, replicate 1: -0.502

MP1 [DRSC12124]
- droplet/nuclear area B-score, replicate 1: 0.815

CG3323 [DRSC18303]
- droplet/nuclear area B-score, replicate 1: 0.262

CG2233 [DRSC18217]
- droplet/nuclear area B-score, replicate 1: -0.376

CG31988 [DRSC22491]
- droplet/nuclear area B-score, replicate 1: 0.188

CG34176 [DRSC00435]
- droplet/nuclear area B-score, replicate 1: 0.275

CG15916 [DRSC19740]
- droplet/nuclear area B-score, replicate 1: 0.152

Pi3K21B [DRSC00771]
- droplet/nuclear area B-score, replicate 1: -0.436

l(2)37Cb [DRSC02095]
- droplet/nuclear area B-score, replicate 1: -0.204

Osi16 [DRSC12135]
- droplet/nuclear area B-score, replicate 1: -0.503

Osi16 [DRSC21323]
- droplet/nuclear area B-score, replicate 1: -0.864

mRpL39 [DRSC10255]
- droplet/nuclear area B-score, replicate 1: 4.28

CG6333 [DRSC10626]
- droplet/nuclear area B-score, replicate 1: -0.335

CG18268 + CG3014 [DRSC15319]
- droplet/nuclear area B-score, replicate 1: -0.0108
